Source: article PMC2893135
Where two headings read alike, the source gives them in different places. Results are given in words; binding and its absence hold for the method and conditions named. Binding seen in cells or lysates may run through a third protein. Some results given as binding are weak or reduced against the parent protein; the word gives no strength. Sequences can lack the tags named with a protein.

Amino acid sequences for entries named in this document (tags omitted).
UniProt P50536: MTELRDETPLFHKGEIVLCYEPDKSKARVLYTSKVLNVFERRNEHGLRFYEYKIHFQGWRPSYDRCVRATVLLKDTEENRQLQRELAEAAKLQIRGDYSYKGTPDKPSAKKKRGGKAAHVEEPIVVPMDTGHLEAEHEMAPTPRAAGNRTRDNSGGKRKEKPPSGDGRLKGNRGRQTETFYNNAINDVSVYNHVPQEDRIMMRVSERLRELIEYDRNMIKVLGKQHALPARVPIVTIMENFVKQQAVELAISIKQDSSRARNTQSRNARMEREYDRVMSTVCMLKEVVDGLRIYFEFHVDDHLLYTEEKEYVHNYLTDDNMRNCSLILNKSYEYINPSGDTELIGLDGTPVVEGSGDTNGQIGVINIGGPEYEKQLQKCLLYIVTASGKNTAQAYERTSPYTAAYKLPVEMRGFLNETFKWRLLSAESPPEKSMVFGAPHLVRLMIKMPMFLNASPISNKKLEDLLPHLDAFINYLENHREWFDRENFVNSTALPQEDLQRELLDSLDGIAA

Legend:
Test in all cases: co-IP; FLAG-MSL1 fragments coexpressed with HA-MOF, HA-MSL3 or both in Drosophila S2 cells; lysate on anti-FLAG M2 beads overnight at 4°C; three washes with 1 M NaCl, 1% NP40 buffer, final wash 150 mM; anti-HA western blot
[1] = target: T1, FLAG-tagged MSL1 fragment, residues 751-1,039, wild type (Drosophila) (UniProt P50535)
T1 sequence: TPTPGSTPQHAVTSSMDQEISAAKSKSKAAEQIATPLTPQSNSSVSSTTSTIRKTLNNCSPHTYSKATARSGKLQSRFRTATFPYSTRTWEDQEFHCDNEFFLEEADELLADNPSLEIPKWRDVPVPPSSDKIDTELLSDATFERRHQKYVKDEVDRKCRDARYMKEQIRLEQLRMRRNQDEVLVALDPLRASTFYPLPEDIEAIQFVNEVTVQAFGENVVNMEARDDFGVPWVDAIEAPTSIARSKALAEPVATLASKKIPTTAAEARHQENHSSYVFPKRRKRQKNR

[2] = target: T2, FLAG-tagged MSL1 fragment, residues 751-1,039, P864L (Drosophila) (UniProt P50535)
T2 sequence: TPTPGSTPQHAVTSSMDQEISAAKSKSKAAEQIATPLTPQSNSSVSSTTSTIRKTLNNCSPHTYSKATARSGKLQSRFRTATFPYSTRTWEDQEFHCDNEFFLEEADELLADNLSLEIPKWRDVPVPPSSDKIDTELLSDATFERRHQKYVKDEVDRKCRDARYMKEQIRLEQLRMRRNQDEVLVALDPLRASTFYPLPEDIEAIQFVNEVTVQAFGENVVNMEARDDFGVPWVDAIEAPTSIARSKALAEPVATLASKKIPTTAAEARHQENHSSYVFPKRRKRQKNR

[3] = target: T3, FLAG-tagged MSL1 fragment from residue 751, K1009X truncation (Drosophila) (UniProt P50535)
T3 sequence: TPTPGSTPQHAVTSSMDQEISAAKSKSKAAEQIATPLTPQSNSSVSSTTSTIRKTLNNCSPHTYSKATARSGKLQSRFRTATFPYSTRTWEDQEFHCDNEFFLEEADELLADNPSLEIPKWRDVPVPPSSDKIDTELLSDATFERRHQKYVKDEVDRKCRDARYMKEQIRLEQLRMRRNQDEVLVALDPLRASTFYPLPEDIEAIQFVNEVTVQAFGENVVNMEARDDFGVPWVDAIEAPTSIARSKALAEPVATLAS

[4] = target: T4, FLAG-tagged MSL1 fragment, residues 751-1,039, S943F (Drosophila) (UniProt P50535)
T4 sequence: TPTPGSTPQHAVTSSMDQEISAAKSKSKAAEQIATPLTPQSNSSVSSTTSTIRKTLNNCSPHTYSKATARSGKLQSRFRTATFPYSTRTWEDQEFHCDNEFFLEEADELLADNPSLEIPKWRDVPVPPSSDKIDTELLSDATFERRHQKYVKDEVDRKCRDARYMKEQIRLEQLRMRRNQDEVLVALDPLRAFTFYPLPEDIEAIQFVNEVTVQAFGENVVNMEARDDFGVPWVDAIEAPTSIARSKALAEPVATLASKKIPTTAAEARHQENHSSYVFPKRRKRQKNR

[5] = target: T5, FLAG-tagged MSL1 fragment, residues 751-1,039, AFG allele (AFG to EFF) (Drosophila) (UniProt P50535)
T5 sequence: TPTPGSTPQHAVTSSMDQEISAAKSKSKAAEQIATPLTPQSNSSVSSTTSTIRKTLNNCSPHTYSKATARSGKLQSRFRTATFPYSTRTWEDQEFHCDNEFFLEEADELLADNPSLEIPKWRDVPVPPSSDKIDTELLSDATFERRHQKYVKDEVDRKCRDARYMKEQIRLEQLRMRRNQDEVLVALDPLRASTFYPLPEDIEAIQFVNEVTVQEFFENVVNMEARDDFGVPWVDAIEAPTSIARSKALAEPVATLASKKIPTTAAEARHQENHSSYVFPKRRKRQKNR

[6] = target: T1, FLAG-tagged MSL1 fragment, residues 751-1,039, wild type (Drosophila); remark: listed apart in the source
[7] = target: T2, FLAG-tagged MSL1 fragment, residues 751-1,039, P864L (Drosophila); remark: listed apart in the source
[8] = target: T3, FLAG-tagged MSL1 fragment from residue 751, K1009X truncation (Drosophila); remark: listed apart in the source
[9] = target: T4, FLAG-tagged MSL1 fragment, residues 751-1,039, S943F (Drosophila); remark: listed apart in the source
[10] = target: T5, FLAG-tagged MSL1 fragment, residues 751-1,039, AFG allele (AFG to EFF) (Drosophila); remark: listed apart in the source

Measured: binding

full-length haemagglutinin (HA)-MSL3 (from UniProt P50536 1-512)
binds: [1] | [2] | [3] | [4] | [5]

B1: full-length haemagglutinin (HA)-MOF ('males absent on first') (enzyme, UniProt O02193 1-827)
chain: MSEAELEQTPSAGHVQEQPIEEEHEPEQEPTDAYTIGGPPRTPVEDAAAELSASLDVSGSDQSAEQSLDLSGVQAEAAAESEPPAKRQHRDISPISEDSTPASSTSTSSTRSSSSSRYDDVSEAEEAPPEPEPEQPQQQQQEEKKEDGQDQVKSPGPVELEAQEPAQPQKQKEVVDQEIETEDEPSSDTVICVADINPYGSGSNIDDFVMDPDAPPNAIITEVVTIPAPLHLKGTQQLGLPLAAPPPPPPPPAAEQVPETPASPTDDGEEPPAVYLSPYIRSRYMQESTPGLPTRLAPRDPRQRNMPPPAVVLPIQTVLSANVEAISDDSSETSSSDDDEEEEEDEDDALTMEHDNTSRETVITTGDPLMQKIDISENPDKIYFIRREDGTVHRGQVLQSRTTENAAAPDEYYVHYVGLNRRLDGWVGRHRISDNADDLGGITVLPAPPLAPDQPSTSREMLAQQAAAAAAASSERQKRAANKDYYLSYCENSRYDYSDRKMTRYQKRRYDEINHVQKSHAELTATQAALEKEHESITKIKYIDKLQFGNYEIDTWYFSPFPEEYGKARTLYVCEYCLKYMRFRSSYAYHLHECDRRRPPGREIYRKGNISIYEVNGKEESLYCQLLCLMAKLFLDHKVLYFDMDPFLFYILCETDKEGSHIVGYFSKEKKSLENYNVACILVLPPHQRKGFGKLLIAFSYELSRKEGVIGSPEKPLSDLGRLSYRSYWAYTLLELMKTRCAPEQITIKELSEMSGITHDDIIYTLQSMKMIKYWKGQNVICVTSKTIQDHLQLPQFKQPKLTIDTDYLVWSPQTAAAVVRAPGNSG
binds: [6] | [7] | [8] | [9] | [10]
